Values quoted from earlier work as cited in patent US5712265A (The General Hospital Corporation, priority 1995, dated 1998).

Settings: 3.0 and 6.0 μg/kg intramuscularly; cited from earlier work

CN1[C@@H]2C[C@@H](OC(=O)[C@H](CO)c3ccccc3)C[C@H]1[C@@H]1O[C@@H]12 [scopolamine]
nocturnal plasma cortisol concentrations: did not affect
